# Screen size: about 330,000 compounds; about 7,700 (2.3%) were called active. This list was built around the results that the source calls inconclusive (neither active nor inactive); the mix of calls is not that of the screen. The call rests on the fitted dose curve; in most records, active means well fitted inhibition curve with a large enough effect; inconclusive means small, poorly fitted or top-dose-only effect, or effect the other way; inactive means flat fitted curve, though single readings scatter. Potencies of inconclusive entries are doubtful fits and often do not repeat.
# Assay: qHTS screen for small molecules that inhibit ELG1-dependent DNA repair in human embryonic kidney (HEK293T) cells expressing luciferase-tagged ELG1; further: nearly all actives have a fitted effect of over 55% in size
# Settings: HEK293T ELG1-luciferase reporter, luminescence, 16 h, DNA damage induced by 5-fluorouridine; activity change, negative = inhibition: at 46.1 µM (top of the series)
# How it was run: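 In this reporter screen, reduction of luminescence relative to DMSO vehicle indicated activity. Compounds and 5-fluorouridine were added together to 2,000 cells per well, incubated for 16 hr at 37 °C, then developed with ONE-Glo.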
# On the % scale 0 is the no-effect control and ±100 the full control effect; potency means the concentration at half of the fitted maximal effect.
SMILES,Potency,"activity change, negative = inhibition"
Fc1cccc(F)c1/C=N/Nc1ccccn1,"inconclusive: 18.3 µM [activator, partial curve]",–
Cc1ccc(Oc2ccc(NC(=O)c3ccco3)cc2)cc1,"inconclusive: 9.2 µM [activator, partial curve]",–
O=C(CCNS(=O)(=O)c1ccccc1C(F)(F)F)NC1CCCCCC1,–,inactive: -5.3%
CCOP(=O)(OCC)c1nc(/C=C/c2ccccc2)oc1NCc1ccc(OC)cc1,"inconclusive: 20.6 µM [inhibitor, single point]",–
Cc1ccccc1-c1noc(C(C)NC(=O)c2ccco2)n1 (centres undefined),–,inactive: -4.64%
CC(=O)Nc1cccc(CCc2nc3ccccc3[nH]2)c1,"inconclusive: 23.1 µM [activator, single point]",–
O=C(NC1CCCN(Cc2ccc(Cl)cc2)C1)c1cnc2ccccn2c1=O (centres undefined),"inconclusive: 8.2 µM [inhibitor, partial curve, poor fit]",–
COc1ccc(S(=O)(=O)N2CCCCCC2)cc1NC(=O)Cc1ccccc1F,"inconclusive: 18.3 µM [inhibitor, single point]",–
CC(NC(=O)c1ccc(C(C)(C)C)cc1)C(=O)O (centres undefined),"inconclusive: 23.1 µM [activator, partial curve, poor fit]",–
Cc1cc(NC(=O)CSc2ncnc3c2cnn3-c2cccc(Cl)c2)no1,–,inactive: 3.78%
COC(=O)/C(=C\Nc1cccc(Cl)c1C)c1ncc(C(F)(F)F)cc1Cl,–,inactive: 13%
O=C(Nc1ccc(Cl)cc1)Nc1nnc(-c2ccncc2)s1,active: 3.66 µM,–
CCn1c(SCC(=O)Nc2cccc(NC(=O)c3cccs3)c2)nnc1-c1ccncc1,active: 18.4 µM,–
O=C(N/N=C\c1cn(-c2ccccc2)nc1-c1ccccc1)c1ccc(Br)o1,"inconclusive: 29.1 µM [inhibitor, single point]",–
C/C=C/C(=O)OCC(=O)Nc1ccccc1Br,–,inactive: -6.61%
CCN(CCCCN1C(=O)c2ccccc2C1=O)c1ccc2c(c1)C(=O)N(C)C2=O,active: 16.4 µM,–
CC(=O)c1cn(CC(=O)NCc2ccc3c(c2)OCO3)c2ccccc12,"inconclusive: 2.91 µM [inhibitor, full curve]",–
Nc1[nH]n(-c2ccccc2)c(=O)c1N=Nc1ccccc1,"inconclusive: 20.6 µM [activator, partial curve]",–
COC(=O)c1c(NC(=O)C2C3CCC(C3)C2C(=O)O)sc2c1CCCCC2 (centres undefined),"inconclusive: 14.6 µM [activator, single point]",–
COC(=O)C(CC(=O)c1ccccc1)CC(=O)c1ccccc1,"inconclusive: 23.1 µM [activator, partial curve]",–
CC1(C)CCC[C@]2(C)[C@H]3Cc4cc(O)ccc4O[C@]3(C)CC[C@@H]12,–,inactive: 18.8%
Cc1ccc(C(=O)c2cc(C)sc2N)cc1,–,inactive: 12.3%
COc1cccc(OCCOc2cccc(/C=N/n3cnnc3)c2)c1,"inconclusive: 6.51 µM [activator, single point]",–

# Entries of single compounds, quoted from the list. Order of values: Potency | activity change, negative = inhibition
# `CC(NC(=O)c1ccc(C(C)(C)C)cc1)C(=O)O` (centres undefined) reads inconclusive: 23.1 µM [activator, partial curve, poor fit] | –
# `Fc1cccc(F)c1/C=N/Nc1ccccn1` reads inconclusive: 18.3 µM [activator, partial curve] | –

# The listing continues:

SMILES,Potency,"activity change, negative = inhibition"
COC(=O)c1nc2n(n1)C(c1cc(OC)ccc1OC)C(C(=O)OC1CCCCC1)=C(C)N2 (centres undefined),"inconclusive: 20.6 µM [activator, single point]",–
COc1ccccc1C(=O)N1CCN(C(=O)COc2cccc(C)c2)CC1,–,inactive: 3.3%
CCOC(=O)c1ccc(NC(=O)c2ccccc2)cc1,"inconclusive: 4.61 µM [activator, partial curve, poor fit]",–
CC(=O)Nc1c(-c2ccccc2)c2cc(Br)ccc2[nH]c1=O,–,inactive: 0.273%
COc1cc(/C=N/NC(N)=S)ccc1OCC(=O)Nc1ccc(C)cc1,"inconclusive: 5.8 µM [inhibitor, single point]",–
CCOc1ccc(OCC)c(S(=O)(=O)n2cnc(C)c2)c1,–,inactive: -9.95%
CC12CCC(C(=O)NNC(=O)c3ccc(Br)cc3)(OC1=O)C2(C)C (centres undefined),"inconclusive: 20.6 µM [activator, partial curve, poor fit]",–
COC(=O)Nc1ccc2c(c1)OCO2,"inconclusive: 16.4 µM [activator, single point]",–
CC(OC(=O)Cn1cnc2c1c(=O)n(C)c(=O)n2C)C(=O)NC1CCCCC1C (centres undefined),–,inactive: -0.864%
CCOc1ccc(N(CC(=O)NC(C(C)C)C(C)C)S(=O)(=O)c2ccc(OC)c(OC)c2)cc1,–,inactive: -12.6%
CN(Cc1ccc(F)cc1)C(=O)c1ccc(NS(=O)(=O)c2ccc3[nH]c(=O)[nH]c3c2)cc1,"inconclusive: 20.6 µM [activator, single point]",–
Cc1cc(SCn2nnc3ccccc3c2=O)nc2ccccc12,"inconclusive: 10.3 µM [activator, partial curve, poor fit]",–
COc1ccc(N2C(=O)c3ccccc3NC2c2ccc(OC)c(CSc3ccccn3)c2)cc1 (centres undefined),–,inactive: 0%
C=CCN(c1ccc(C(=O)NCCc2ccccc2)cc1)S(C)(=O)=O,"inconclusive: 23.1 µM [activator, single point]",–
Cc1ccc(-n2nnnc2C(=Cc2ccc(N(C)C)cc2)c2nnnn2-c2ccc(C)cc2)cc1,"inconclusive: 35.5 µM [inhibitor, partial curve, poor fit]",–
CC(=O)N1CCc2cc(N=NC3=C(O)CCCC3=O)ccc21,"inconclusive: 14.6 µM [activator, partial curve]",–
CCCCOc1ccc(C(=O)Nc2ccc(S(=O)(=O)Nc3cc(C)on3)cc2)cc1OC,"inconclusive: 20.6 µM [activator, partial curve, poor fit]",–
Cn1cc(Cl)c(/C(N)=N/OC(=O)c2ccccc2C(F)(F)F)n1,"inconclusive: 18.3 µM [activator, partial curve]",–
Cc1ccc2nc(N/N=C/c3ccccc3C#N)nc(-c3ccccc3)c2c1,active: 20.6 µM,–
COc1ccc(NC(=O)c2cc(-c3ccco3)nc3ccccc23)cc1S(=O)(=O)N1CCOCC1,active: 10.3 µM,–
COc1ccccc1NC(=O)c1ccc(CS(=O)(=O)c2ccc(C)cc2)cc1,"inconclusive: 6.51 µM [inhibitor, single point]",–
Cc1c(CC(=O)N2CCC(C(=O)O)CC2)c(=O)oc2cc3c(cc12)CCC1(CCCCC1)O3,–,inactive: 17.9%
O=C(O)c1ccc(COc2ccc([N+](=O)[O-])cc2)o1,"inconclusive: 32.6 µM [activator, partial curve, poor fit]",–

SMILES,Potency,"activity change, negative = inhibition"
O=C(OCc1nc2ccccc2s1)C1CCN(S(=O)(=O)c2cccs2)CC1,"inconclusive: 18.4 µM [activator, partial curve]",–
CCOC(=O)C1CCCN(C(=O)C2c3ccccc3Oc3ccccc32)C1 (centres undefined),–,inactive: 2.05%
CCOc1ccc(CCNC(=O)Cn2c(-c3nonc3N)nc3ccccc32)cc1OCC,"inconclusive: 25.9 µM [inhibitor, single point]",–
CC(C)c1ccc(S(=O)(=O)/N=C2/C=C(Sc3ncn[nH]3)C(=O)c3ccccc32)cc1,active: 6.51 µM,–
Cc1cccc(C(C(=O)NC2CCCCC2)N(C(=O)c2csnn2)C2CC2)c1 (centres undefined),–,inactive: 0.138%
COc1cc(-c2n[nH]c(=S)n2/N=C/c2cccn2C)cc(OC)c1OC,"inconclusive: 29.1 µM [activator, single point]",–
Nc1c(C(=O)c2ccc(Br)s2)oc2ccccc12,"inconclusive: 29.1 µM [activator, single point]",–
COc1ccccc1N1CCN(C(=O)c2cccc(C(=O)N3CCN(c4ccccc4OC)CC3)c2)CC1,"inconclusive: 25.9 µM [inhibitor, single point]",–
O=C(NCc1cccs1)C1CCCN1C(=O)Nc1ccccc1[N+](=O)[O-] (centres undefined),–,inactive: -0.0774%
COc1cccc(C2=CC(=O)CC(C)(C)C2)c1,"inconclusive: 20.6 µM [inhibitor, single point]",–
CN(Cc1ccccc1)C(=O)c1[nH]cnc1C(=O)Nc1cccc(Cl)c1,"inconclusive: 14.6 µM [activator, partial curve]",–
CCOC(=O)c1cc(-c2ccc(C)cc2)n(CCC(=O)NCCN(C)C)c1C,–,inactive: 13%
COCC1CCN(C(=O)c2cc(COc3ccc4ncccc4c3)on2)CC1,"inconclusive: 1.3 µM [inhibitor, partial curve]",–
COc1cc(NC(=S)NC(C)=O)ccc1NC(=O)C(C)C,"inconclusive: 14.6 µM [activator, partial curve]",–
CC(C)CCNC(=O)C(=O)Nc1ccc2c(c1)N(S(=O)(=O)c1cccs1)CCC2,"inconclusive: 9.2 µM [inhibitor, partial curve, poor fit]",–
O=C(O)c1cccc(OS(=O)(=O)c2cc(Br)ccc2Br)c1,"inconclusive: 12.6 µM [activator, partial curve, poor fit]",–
O=C(CCSc1ccc(Cl)cc1)NC12CC3CC(CC(C3)C1)C2,"inconclusive: 18.4 µM [activator, partial curve]",–
O=C(Nc1ccccc1)C1=C[C@@H](c2ccccc2)C[C@@H](OCc2ccc(CO)cc2)O1,"inconclusive: 20.6 µM [inhibitor, partial curve, poor fit]",–
Cc1cccnc1Nc1nc(-c2ccc(O)c(O)c2)cs1,"inconclusive: 4.61 µM [activator, single point]",–
O=C(N/N=C/c1ccc2c(c1)OCO2)C(=O)Nc1ccccc1,"inconclusive: 23.1 µM [activator, partial curve]",–
CSc1nc2ccccc2n1CC(=O)Nc1cc(C(F)(F)F)ccc1N1CCOCC1,–,inactive: -1.62%
Cc1ccc(Oc2nnc(-c3ccc(C)cc3)c3ccccc23)cc1,"inconclusive: 13 µM [activator, partial curve]",–
Cc1cccc2[nH]c(CN(C)C(=O)C3CCC(=O)N(C4CC4)C3)nc12 (centres undefined),"inconclusive: 25.9 µM [activator, partial curve, poor fit]",–

# Rewritten bar-delimited: part of the list above.
SMILES | Potency | activity change, negative = inhibition
CC(C)c1ccc(S(=O)(=O)/N=C2/C=C(Sc3ncn[nH]3)C(=O)c3ccccc32)cc1 | active: 6.51 µM | –
Cc1cccc(C(C(=O)NC2CCCCC2)N(C(=O)c2csnn2)C2CC2)c1 (centres undefined) | – | inactive: 0.138%
COc1cc(-c2n[nH]c(=S)n2/N=C/c2cccn2C)cc(OC)c1OC | inconclusive: 29.1 µM [activator, single point] | –

# Reference: PubChem BioAssay AID504467 (National Center for Advancing Translational Sciences (NCATS), 2011)
